Measurements reported in PubChem BioAssay AID504793 (Drosophila RNAi Screening Center, 2011)

Aim: 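Knock-downs allowing continued mitosis even though DNA is damaged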 (primary screen)
Cells: Drosophila S2R+ cells
Reagent: long dsRNA against Drosophila genes, about 0.25 µg dsRNA per well
Duration: 4 days of dsRNA, then 4 hours of drug before read-out
Conditions: doxorubicin 0.5 µM for 4 hours to cause double-strand breaks, in cells also given a low, harmless dose of dsRNA against nbs to sensitise the assay
Read-out: 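Per-well count of mitotic cells stained for phospho-histone H3 after doxorubicin exposure, used as mitotic index; counts are raw and not normalised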
Direction: mitotic cells: higher = more cells in mitosis, weaker G2 arrest
Active means: 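Genes are called active only when high mitotic counts were reproduced with independent dsRNAs and mitosis was checked for delay without damage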
Calls: active = confirmed in follow-up tests; inactive = not confirmed
The deposit covers about 23,000 reagents; shown is an unselected part of those with a known target gene and a result. Over the whole deposit, 62 (0.27%) were called active. 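Calls come from follow-up tests whose scores are not deposited, so confirmed genes may have low counts here; counts are not normalised per plate.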 Raw values are not corrected between plates. Unmarked entries are inactive. A plus sign joins genes that one reagent is predicted to hit. No sequences are given here.

{"Target gene":"wge","DRSC id":"DRSC15246","mitotic cells, replicate 1":6}
{"Target gene":"wge","DRSC id":"DRSC15672","mitotic cells, replicate 1":8}
{"Target gene":"CSN4","DRSC id":"DRSC07350","mitotic cells, replicate 1":12}
{"Target gene":"CG9328","DRSC id":"DRSC03203","mitotic cells, replicate 1":2}
{"Target gene":"CG3788","DRSC id":"DRSC04418","mitotic cells, replicate 1":6}
{"Target gene":"CG3788","DRSC id":"DRSC24502","mitotic cells, replicate 1":7}
{"Target gene":"ncm","DRSC id":"DRSC02179","mitotic cells, replicate 1":4}
{"Target gene":"ncm","DRSC id":"DRSC29504","mitotic cells, replicate 1":2}
{"Target gene":"CG13135","DRSC id":"DRSC02232","mitotic cells, replicate 1":5}
{"Target gene":"CG13135","DRSC id":"DRSC27657","mitotic cells, replicate 1":10}
{"Target gene":"Paip2","DRSC id":"DRSC14504","mitotic cells, replicate 1":12}
{"Target gene":"halo","DRSC id":"DRSC00705","mitotic cells, replicate 1":2}
{"Target gene":"halo","DRSC id":"DRSC27447","mitotic cells, replicate 1":6}
{"Target gene":"CG31200","DRSC id":"DRSC15285","mitotic cells, replicate 1":2}
{"Target gene":"CG13836 (retired record)","DRSC id":"DRSC14686","mitotic cells, replicate 1":5}
{"Target gene":"CG13836 (retired record)","DRSC id":"DRSC28063","mitotic cells, replicate 1":5}
{"Target gene":"CG43163","DRSC id":"DRSC10745","mitotic cells, replicate 1":7}
{"Target gene":"CG43163","DRSC id":"DRSC10748","mitotic cells, replicate 1":3}
{"Target gene":"CG43163","DRSC id":"DRSC23670","mitotic cells, replicate 1":4}
{"Target gene":"l(2)41Ab","DRSC id":"DRSC21007","mitotic cells, replicate 1":9}
{"Target gene":"cyst","DRSC id":"DRSC02023","mitotic cells, replicate 1":10}
{"Target gene":"Gr33a","DRSC id":"DRSC02589","mitotic cells, replicate 1":7}
{"Target gene":"HIPP1","DRSC id":"DRSC11748","mitotic cells, replicate 1":4}
{"Target gene":"HIPP1","DRSC id":"DRSC27992","mitotic cells, replicate 1":12}
{"Target gene":"sbr","DRSC id":"DRSC19770","mitotic cells, replicate 1":5}
{"Target gene":"sbr","DRSC id":"DRSC20368","mitotic cells, replicate 1":21}
{"Target gene":"sbr","DRSC id":"DRSC29803","mitotic cells, replicate 1":7}
{"Target gene":"CG10194","DRSC id":"DRSC02025","mitotic cells, replicate 1":4}
{"Target gene":"Ptip","DRSC id":"DRSC10660","mitotic cells, replicate 1":11}
{"Target gene":"Ptip","DRSC id":"DRSC11048","mitotic cells, replicate 1":13}
{"Target gene":"Polr3K + Tcs1","DRSC id":"DRSC05988","mitotic cells, replicate 1":6}
{"Target gene":"Polr3K + Tcs1","DRSC id":"DRSC26790","mitotic cells, replicate 1":4}
{"Target gene":"Arpc1","DRSC id":"DRSC03438","mitotic cells, replicate 1":3}
{"Target gene":"Arpc1","DRSC id":"DRSC29641","mitotic cells, replicate 1":3}
{"Target gene":"Prosalpha2","DRSC id":"DRSC16798","mitotic cells, replicate 1":133}
{"Target gene":"Prosalpha2","DRSC id":"DRSC28078","mitotic cells, replicate 1":50}
{"Target gene":"thoc7","DRSC id":"DRSC08512","mitotic cells, replicate 1":8}
{"Target gene":"thoc7","DRSC id":"DRSC29470","mitotic cells, replicate 1":14}
{"Target gene":"CG3502","DRSC id":"DRSC04381","mitotic cells, replicate 1":6}
{"Target gene":"hoka","DRSC id":"DRSC08313","mitotic cells, replicate 1":7}
{"Target gene":"dob","DRSC id":"DRSC19948","mitotic cells, replicate 1":9}
{"Target gene":"CG31406","DRSC id":"DRSC12777","mitotic cells, replicate 1":12}
{"Target gene":"CG31406","DRSC id":"DRSC26169","mitotic cells, replicate 1":6}

2 of these entries, reformatted:
{"Target gene": "ncm", "DRSC id": "DRSC02179", "mitotic cells, replicate 1": 4}
{"Target gene": "ncm", "DRSC id": "DRSC29504", "mitotic cells, replicate 1": 2}
